First the molecules themselves.
B1: BACE030 (peptide)
peptide: ESMYCRLLGIGCG
modifications: N-terminal acetyl (Ac); C-terminal amide (NH2); disulfide Cys5-Cys12
B2: SEQ ID NO 58 (peptide, not shown: large carriers)
chain: SGCFDYPCFLTIDI
B3: phage-displayed peptide BACE010 (SEQ ID NO 21) (peptide, not shown: large carriers)
chain: SGPYFIEYMSAV
B4: SEQ ID NO 68 (peptide, not shown: large carriers)
chain: SGVFFMACDYVNCTDFSV
B5: SEQ ID NO 57 (peptide, not shown: large carriers)
chain: SGTMFPYFLEVG
B6: SEQ ID NO 64 (peptide, not shown: large carriers)
chain: SGGLPSGCLDYPCFVPIS
B7: SEQ ID NO 67 (peptide, not shown: large carriers)
chain: SGVHYFLCIVESCSVYPA
B8: SEQ ID NO 62 (peptide, not shown: large carriers)
chain: SGYPYFPIINSENISSID
B9: SEQ ID NO 56 (peptide, not shown: large carriers)
chain: SGSDIASLPTPYFLSI
B10: SEQ ID NO 63 (peptide, not shown: large carriers)
chain: SGTMFPYFLEV
B11: SEQ ID NO 65 (peptide, not shown: large carriers)
chain: SGYFLCLFEDVWVSCGLL
B12: SEQ ID NO 59 (peptide, not shown: large carriers)
chain: SGNIPFFYGDRFLD
B13: SEQ ID NO 61 (peptide, not shown: large carriers)
chain: SGPYFVEFLSAVVVRSG
B14: SEQ ID NO 60 (peptide, not shown: large carriers)
chain: SGGLGFPYFIHVGA
B15: SEQ ID NO 66 (peptide, not shown: large carriers)
chain: SGYFLCAFAHGWALCNAD
B16: BACE010 (Ac-…-NH2) (peptide)
peptide: SGPYFIEYMSAV
modifications: N-terminal acetyl (Ac); C-terminal amide (NH2)
B17: SEQ ID NO 71 (peptide)
chain: KEENIYCRLLSLGCS
notes: not shown: M13 major coat protein; peptide fused to its N-terminus
B18: SEQ ID NO 75 (peptide)
chain: IEESIYCRLLGFGCG
notes: as for B17
B19: SEQ ID NO 79 (peptide, not shown: large carriers)
chain: TEESLYCRLLGVGCG
B20: SEQ ID NO 85 (peptide, not shown: large carriers)
chain: KEESIYCRLLGHGCG
B21: SEQ ID NO 83 (peptide, not shown: large carriers)
chain: YEESIYCRLLGIGCG
B22: SEQ ID NO 92 (peptide, not shown: large carriers)
chain: NEVSLYCRLLDLGCG
B23: phage-displayed peptide BACE019 (SEQ ID NO 15) (peptide)
chain: NELSPYCRLMGLGCD
notes: as for B17
B24: SEQ ID NO 82 (peptide, not shown: large carriers)
chain: NDDSLYCRLLGLGCG
B25: SEQ ID NO 80 (peptide)
chain: KEESIHCRLLGLGCG
notes: as for B17
B26: SEQ ID NO 93 (peptide)
chain: NPENNYCRLLNLGCG
notes: as for B17
B27: phage-displayed peptide BACE018 (SEQ ID NO 14) (peptide)
chain: KEESIYCRLMGLGCG
notes: as for B17
B28: SEQ ID NO 94 (peptide, not shown: large carriers)
chain: NDEHMYCRLLGLDCN
B29: SEQ ID NO 78 (peptide)
chain: NDESVYCRLLGIGCG
notes: as for B17
B30: SEQ ID NO 86 (peptide, not shown: large carriers)
chain: NEENMYCRLMGIGCG
B31: SEQ ID NO 76 (peptide, not shown: large carriers)
chain: NGDNMYCRLLGLGCE
B32: SEQ ID NO 77 (peptide, not shown: large carriers)
chain: DVESVYCRLLGLGCG
B33: SEQ ID NO 81 (peptide, not shown: large carriers)
chain: NVEHIHCRLLGLGCG
B34: SEQ ID NO 70 (peptide, not shown: large carriers)
chain: NEESIYCRLLGLGCG
B35: SEQ ID NO 84 (peptide, not shown: large carriers)
chain: TDESIYCRLLSIACG
B36: SEQ ID NO 74 (peptide)
chain: VEESIYCRLLGLGCG
notes: as for B17
B37: SEQ ID NO 88 (peptide, not shown: large carriers)
chain: HEDHLYCRLLGIGCG
B38: SEQ ID NO 72 (peptide, not shown: large carriers)
chain: NEESIYCRLLGLACG
B39: SEQ ID NO 91 (peptide, not shown: large carriers)
chain: AEESIYCRLLGLGCG
B40: SEQ ID NO 87 (peptide, not shown: large carriers)
chain: YEESIYCRLLGLGCG
B41: phage-displayed peptide BACE020 (SEQ ID NO 16) (peptide, not shown: large carriers)
chain: NEESMYCRLLGIGCG
B42: SEQ ID NO 73 (peptide, not shown: large carriers)
chain: KEDSMYCRLLGLGCG
B43: SEQ ID NO 69 (peptide)
chain: NMESVHCRLLGLGCG
notes: as for B17
B44: SEQ ID NO 89 (peptide, not shown: large carriers)
chain: KEESLYCRLLGLGCG
B45: phage-displayed peptide BACE021 (SEQ ID NO 17) (peptide)
chain: PEESLYCRLLALGCG
notes: as for B17
B46: SEQ ID NO 90 (peptide)
chain: TEESIYCRLLGLGCD
notes: as for B17
B47: SEQ ID NO 95 (peptide, not shown: large carriers)
chain: NDENMYCRLLGLGCA
B48: BMS1 (peptide)
peptide: NLTTYPYFIPLP
modifications: N-terminal acetyl (Ac); C-terminal amide (NH2)

Sequences of proteins named here, by UniProt entry; tags and fusion partners are left off. A change or cut given only in a name is not applied to a line headed by its entry.
UniProt P56817: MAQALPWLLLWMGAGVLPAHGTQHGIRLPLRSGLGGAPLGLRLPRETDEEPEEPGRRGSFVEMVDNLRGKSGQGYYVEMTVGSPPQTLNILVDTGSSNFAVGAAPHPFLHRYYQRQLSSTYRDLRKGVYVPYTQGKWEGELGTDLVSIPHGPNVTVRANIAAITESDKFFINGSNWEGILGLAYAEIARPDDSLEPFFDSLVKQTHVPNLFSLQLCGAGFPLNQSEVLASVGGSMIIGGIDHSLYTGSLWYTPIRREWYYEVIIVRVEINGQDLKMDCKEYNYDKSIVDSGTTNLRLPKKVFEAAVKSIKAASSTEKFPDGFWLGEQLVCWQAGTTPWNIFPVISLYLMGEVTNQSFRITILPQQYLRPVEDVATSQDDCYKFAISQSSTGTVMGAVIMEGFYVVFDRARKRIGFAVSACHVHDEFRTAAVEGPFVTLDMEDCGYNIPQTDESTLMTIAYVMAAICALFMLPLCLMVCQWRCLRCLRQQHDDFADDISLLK

No constants are given. Whether binding was seen depends on the method and setting. Some entries that bind do so weakly or less than the wild type.

The first test has as its target human BACE1 (residues 57-453), C-terminal His6 (human) (UniProt P56817). The test is described as follows: co-crystal structure at 1.5 Å.
Turning to B1, the binding result is recorded as “binds”.

Another test addresses T1, recombinant human BACE1 (rhBACE1) (human, UniProt P56817 22-457, limits assumed). Description: plate sorting on BACE1; phage ELISA. (In general: In an ELISA, binding on a coated surface is turned into a signal by an enzyme label.)
On to B2, for which the binding entry is recorded as “binds”.
On the same count and under the same terms, as for B3, the entry is “binds”.
The same measure, in the same setting: as for B4, the entry is “binds”; as for B5, “binds”.
The same measure, in the same setting: as for B6, the entry is “binds”; as for B7, “binds”.
Consider B8, for which the binding entry was “binds”.
Still for that read-out and setting: as for B9, the entry is “binds”.
Same read-out and setting: as for B10, the entry is “binds”.
Same read-out and setting: as for B11, the entry is “binds”.
Consider B12, for which the binding entry is recorded as “binds”.
Still for that read-out and setting: as for B13, the entry is “binds”; as for B14, “binds”.
Same read-out and setting: as for B15, the entry is “binds”.

A further test concerns the target T1, recombinant human BACE1 (rhBACE1). The test is described as follows: used at 100 µM as competitor in solution sorting on BACE1.
Regarding B16, the binding entry was “binds”.

For the next test the target is unchanged. The test is described as follows: solution sorting with BACE010 as competitor; phage spot ELISA.
Turning to B17, the binding entry is “binds”.
The same measure, in the same setting: as for B18, the entry is “binds”.
On the same count and under the same terms, as for B19, the entry is “binds”; as for B20, “binds”; as for B21, “binds”.
The same measure, in the same setting: as for B22, the entry is “binds”.
B23: the binding entry is listed as “binds”.
The same measure, in the same setting: as for B24, the entry is “binds”.
Regarding B25, the binding entry is recorded as “binds”.
Same read-out and setting: as for B26, the entry is “binds”.
Same read-out and setting: as for B27, the entry is “binds”.
On the same count and under the same terms, as for B28, the entry is “binds”; as for B29, “binds”; as for B30, “binds”.
For the molecule B31, the binding entry is recorded as “binds”.
On the same count and under the same terms, as for B32, the entry is “binds”; as for B33, “binds”; as for B34, “binds”.
On to B35, for which the binding result was “binds”.
Same read-out and setting: as for B36, the entry is “binds”.
Same read-out and setting: as for B37, the entry is “binds”; as for B38, “binds”; as for B39, “binds”.
On the same count and under the same terms, as for B40, the entry is “binds”; as for B41, “binds”; as for B42, “binds”.
As for B43, the binding entry is on record as “binds”.
Still for that read-out and setting: as for B44, the entry is “binds”; as for B45, “binds”; as for B46, “binds”.
Still for that read-out and setting: as for B47, the entry is “binds”.

Another test shares this target. The test is described as follows: phage ELISA on BACE1; 70 nM BMS1 against peptide-displaying phage.
In the case of B48, the binding entry was “binds”.

The values are drawn from patent US20140228277A1 (Genentech, published 2014).
